These are yes or no findings as the source states them, for the method shown. Binding seen in cells or lysates may run through a third protein. A yes stands for co-enrichment or nearness to the bait. Other partners may have been found.
Biological target: FLAG-BirA-RREB1 (RAS-responsive element binding protein-1) (UniProt Q92766)
Experiment: proximity labelling; BioID with FLAG-BirA-RREB1 as bait in HEK293-TREx flp-in cells; 1 μg/ml tetracycline and 50 μM biotin for 24 h; RIPA lysis, Streptavidin-Sepharose capture, mass spectrometry; 1% FDR

Amino acid sequences for entries named in this document (tags omitted).
UniProt Q92766: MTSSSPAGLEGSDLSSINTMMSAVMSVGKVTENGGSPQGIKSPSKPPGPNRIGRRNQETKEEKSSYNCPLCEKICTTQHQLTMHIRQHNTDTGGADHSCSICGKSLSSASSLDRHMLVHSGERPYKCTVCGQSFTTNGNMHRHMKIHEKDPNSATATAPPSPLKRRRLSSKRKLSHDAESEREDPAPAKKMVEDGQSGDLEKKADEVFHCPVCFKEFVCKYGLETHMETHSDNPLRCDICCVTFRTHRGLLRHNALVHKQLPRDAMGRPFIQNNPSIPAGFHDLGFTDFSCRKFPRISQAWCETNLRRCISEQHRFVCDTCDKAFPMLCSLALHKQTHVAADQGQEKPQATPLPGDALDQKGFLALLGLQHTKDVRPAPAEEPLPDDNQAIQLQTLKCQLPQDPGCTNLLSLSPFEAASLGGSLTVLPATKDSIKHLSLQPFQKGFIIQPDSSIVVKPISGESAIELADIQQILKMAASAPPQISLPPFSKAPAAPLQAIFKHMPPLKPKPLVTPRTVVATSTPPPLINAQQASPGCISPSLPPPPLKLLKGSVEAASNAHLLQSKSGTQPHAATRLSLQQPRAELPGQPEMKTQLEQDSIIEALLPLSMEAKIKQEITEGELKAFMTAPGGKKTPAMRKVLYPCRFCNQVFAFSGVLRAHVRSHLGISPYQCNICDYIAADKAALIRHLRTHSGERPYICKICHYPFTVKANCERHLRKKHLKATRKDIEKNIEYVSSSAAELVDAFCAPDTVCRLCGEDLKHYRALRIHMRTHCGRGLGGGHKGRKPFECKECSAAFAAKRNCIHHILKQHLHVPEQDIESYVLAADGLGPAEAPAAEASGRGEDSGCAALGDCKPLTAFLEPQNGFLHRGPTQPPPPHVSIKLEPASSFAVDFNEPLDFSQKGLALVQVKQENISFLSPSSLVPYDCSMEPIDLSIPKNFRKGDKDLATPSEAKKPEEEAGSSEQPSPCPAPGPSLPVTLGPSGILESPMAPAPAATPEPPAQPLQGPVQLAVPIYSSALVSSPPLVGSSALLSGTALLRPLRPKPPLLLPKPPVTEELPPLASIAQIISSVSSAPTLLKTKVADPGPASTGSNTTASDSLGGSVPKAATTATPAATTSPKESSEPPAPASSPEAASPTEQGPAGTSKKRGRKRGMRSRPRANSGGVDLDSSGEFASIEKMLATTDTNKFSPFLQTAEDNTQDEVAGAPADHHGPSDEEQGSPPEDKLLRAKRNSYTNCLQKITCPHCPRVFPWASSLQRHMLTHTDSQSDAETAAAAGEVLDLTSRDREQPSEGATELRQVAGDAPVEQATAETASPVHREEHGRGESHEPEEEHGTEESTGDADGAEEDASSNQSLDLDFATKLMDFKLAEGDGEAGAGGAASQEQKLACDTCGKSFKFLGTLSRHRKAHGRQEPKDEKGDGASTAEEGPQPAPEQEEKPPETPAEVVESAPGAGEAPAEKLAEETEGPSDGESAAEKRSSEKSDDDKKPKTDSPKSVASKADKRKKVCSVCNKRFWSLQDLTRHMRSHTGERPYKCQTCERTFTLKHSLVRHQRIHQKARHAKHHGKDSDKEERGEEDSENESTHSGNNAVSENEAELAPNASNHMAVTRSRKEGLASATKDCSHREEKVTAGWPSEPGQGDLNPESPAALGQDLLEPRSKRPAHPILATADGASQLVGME
UniProt Q13547: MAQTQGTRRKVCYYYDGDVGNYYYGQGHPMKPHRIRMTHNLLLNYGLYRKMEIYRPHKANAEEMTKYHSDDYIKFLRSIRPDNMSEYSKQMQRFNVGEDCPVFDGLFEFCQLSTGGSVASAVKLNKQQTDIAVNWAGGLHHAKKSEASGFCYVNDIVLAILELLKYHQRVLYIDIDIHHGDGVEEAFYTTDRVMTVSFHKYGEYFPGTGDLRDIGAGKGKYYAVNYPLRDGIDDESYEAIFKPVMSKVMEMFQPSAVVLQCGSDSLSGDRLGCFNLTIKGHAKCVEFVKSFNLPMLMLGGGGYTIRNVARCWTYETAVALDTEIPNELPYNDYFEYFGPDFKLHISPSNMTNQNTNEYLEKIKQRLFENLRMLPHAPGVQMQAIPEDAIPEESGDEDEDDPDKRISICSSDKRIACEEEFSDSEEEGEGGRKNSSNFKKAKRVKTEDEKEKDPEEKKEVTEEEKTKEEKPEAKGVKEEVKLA

endogenous HDAC1 (from UniProt Q13547 1-482)
binding: binds

Reference: article PMC7495420
